According to article PMC8883650:
Results are given in words; binding and its absence hold for the method and conditions named. Binding seen in cells or lysates may run through a third protein. Some results given as binding are weak or reduced against the parent protein; the word gives no strength.

Sequences of proteins named here, by UniProt entry; tags and fusion partners are left off.
UniProt P01106: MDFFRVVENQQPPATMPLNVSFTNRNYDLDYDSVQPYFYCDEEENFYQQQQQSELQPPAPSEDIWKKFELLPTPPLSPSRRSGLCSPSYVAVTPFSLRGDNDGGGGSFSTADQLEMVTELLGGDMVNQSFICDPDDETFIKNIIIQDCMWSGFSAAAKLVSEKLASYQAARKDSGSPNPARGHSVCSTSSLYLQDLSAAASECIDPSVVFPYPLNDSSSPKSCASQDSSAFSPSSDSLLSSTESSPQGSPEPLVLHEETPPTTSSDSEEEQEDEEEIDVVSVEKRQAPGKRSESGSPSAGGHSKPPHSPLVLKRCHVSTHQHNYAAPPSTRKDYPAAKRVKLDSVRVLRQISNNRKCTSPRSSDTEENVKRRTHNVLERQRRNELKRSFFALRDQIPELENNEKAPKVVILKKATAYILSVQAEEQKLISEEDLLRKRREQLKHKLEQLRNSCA

Target: c-Myc (UniProt P01106)
Experiment: co-IP; lysates of three NPC cell lines incubated with antibodies; enriched proteins examined by western blotting

B1: SERPINH1 (protein, UniProt P50454 19-418)
chain: AEVKKPAAAAAPGTAEKLSPKAATLAERSAGLAFSLYQAMAKDQAVENILVSPVVVASSLGLVSLGGKATTASQAKAVLSAEQLRDEEVHAGLGELLRSLSNSTARNVTWKLGSRLYGPSSVSFADDFVRSSKQHYNCEHSKINFRDKRSALQSINEWAAQTTDGKLPEVTKDVERTDGALLVNAMFFKPHWDEKFHHKMVDNRGFMVTRSYTVGVMMMHRTGLYNYYDDEKEKLQIVEMPLAHKLSSLIILMPHHVEPLERLEKLLTKEQLKIWMGKMQKKAVAISLPKGVVEVTHDLQKHLAGLGLTEAIDKNKADLSRMSGKKDLYLASVFHATAFELDTDGNPFDQDIYGREELRSPKLFYADHPFIFLVRDTQSGSLLFIGRLVRPKGDKMRDEL
In the case of B1, the binding is reported as “binds”.
